Data on 76 substances can be found in the supplement of paper PMC5949888.

Most values lie at the floor of the assay. Slopes are relative: functional sequences can read slightly below zero.

The subject of the data set is Saccharomyces cerevisiae PS128 hsf1 delta, HSF1(1-493) fusion. As to the kind of experiment: growth estimate (transactivation domain function in HSF1 fusion, heat-shock survival) (a.u. (slope of normalised read count over time)); higher = stronger growth at 37°C, i.e. more transactivation activity. The conditions noted are these: library: random library. Here is the method: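 Random 60-nt DNA library encoding peptides of up to 20 aa, fused to the C-terminus of yeast HSF1 residues 1-493 (C-terminal TAD deleted) and expressed from the native HSF1 promoter on a CEN plasmid in hsf1-deleted S. cerevisiae PS128. Cells were selected at 37°C on -trp 5-FOA plates for 0, 2, 4, 6 and 8 days and amplicons were sequenced. Growth estimate is the slope of a robust linear fit of total-sum-normalised read counts (normalised to the first time point) over time, using at least 2 replicates. Sequences are classed functional (TAD activity) above a threshold of -0.13, set from stop-codon control sequences.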
Consider RDV, for which the growth estimate is less than -0.25. Under PTTEV stands less than -0.25. With SRPGSRVYRI, the growth estimate is less than -0.25.

As to WGAITA, the growth estimate was less than -0.25. Turning to LPFHATGRDSD, the growth estimate is less than -0.25. The same measure for QDTIKVTRAVGPASQFSLTI: less than -0.25; for TSAPTFGRKNSGTF: less than -0.25; for VTRTRSMAHSSGLRGSVQ: less than -0.25. The same measure for QGAGGAHNQSLLYCTCIIPP: less than -0.25; for LSRSS: less than -0.25. As to LVTLVLNLST, the growth estimate is less than -0.25.

In the case of MWAREVGVGNAG, the growth estimate is less than -0.25.

Consider GTGGQGYDLVKSE, for which the growth estimate was less than -0.25. For RRDVLHPQEQNSCSFFPDHR, the growth estimate is less than -0.25.

For the substance RAARSPRHLDISCTTGRVTG, the growth estimate was less than -0.25. The same measure for FYVQDLNYHVENVGTTSRLR: less than -0.25; for KELGEHGAMANLVYKRLTPK: less than -0.25; for ERVYRMA: less than -0.25. In the case of LSHQLGGGGTLF, the growth estimate was 0.106. Regarding WDGEYPGTR, the growth estimate was less than -0.25. The same measure for AQTTGTIRDSDTQPWLDRRL: less than -0.25; for GCP: less than -0.25; for NGGQTCDKQALS: less than -0.25. The same measure for PKIGLTKPPSRNIIVS: less than -0.25; for LEKYSSLYVHLTSYWLRV: less than -0.25. In the case of QPSRDPMAHQ, the growth estimate is less than -0.25. Under RYGTARKSSQNR stands less than -0.25; under LHKGSVGAGLWRAGRT, less than -0.25.

For GVRPVDLISFRIFFSIFRMF, the growth estimate was less than -0.25. Under YYLCIVDTRRNQGRERGYAH stands less than -0.25; under TLVMPTASHPLC, less than -0.25; under WPVIVEVRAAARSYDPRSLG, less than -0.25. SPPLFPLQPGILQGGGPTRG: the growth estimate was less than -0.25.

As to PRSRVG, the growth estimate was less than -0.25. The same measure for NVDSGTEGLCYCVARKNQLW: less than -0.25; for RMRCGQLGQANCIPG: less than -0.25. As for VRR, the growth estimate is less than -0.25. As for SRYVSSIGADTIKSVVVQLS, the growth estimate was less than -0.25. The same measure for IHRGLL: less than -0.25. The same measure for RVKHLAQYQNIGLFLATVKA: less than -0.25.

For the substance VTAPHHNSQKHGKILWRQAE, the growth estimate was less than -0.25. Under GVSAIRVQHQGLNGAINRSS stands less than -0.25. Under VLVWVATEPVIRTFGEAVQS stands less than -0.25; under RTVYWRPVRGRQDSWDRFLR, less than -0.25. Under NKN stands less than -0.25.

Turning to PAMRPLHEEISTHATTRPQL, the growth estimate was less than -0.25.

As for THMICGK, the growth estimate is -0.246.

Consider NCSM, for which the growth estimate is less than -0.25. On to GRRTRMIVVCADSYTLGAGR, for which the growth estimate is less than -0.25.

As to KST, the growth estimate was less than -0.25. The same measure for SVRIPSEQPNSA: less than -0.25; for IKLPASPT: less than -0.25; for SKSNLSDSVTVREGKF: less than -0.25. For the substance SGRGRSVAIALGFRESWVN, the growth estimate was less than -0.25. For KHKVPQEVGHGCRFSVGHPR, the growth estimate was less than -0.25. The same measure for SVSEDVWH: less than -0.25; for WLRGASSIESE: less than -0.25. The same measure for NVLRGTARSCCKSYLRSERA: less than -0.25.

As to PLSCICHNTVRELNFSRSPA, the growth estimate is less than -0.25. The same measure for RQIGGATIRKGR: less than -0.25; for ASGAIVMMIALFLGDRGYPG: less than -0.25; for IIREGSTKRLLNGDLNFDPG: less than -0.25. The same measure for LAGDLSGT: less than -0.25; for CISCSGARLGCVFPYLRFVG: less than -0.25. On to LLIEPLRPA, for which the growth estimate was less than -0.25. The same measure for KGLCFSRQNYQAAQKRGVVP: less than -0.25. Under GPRVPWTPTEIRRSRLFSST stands -0.0641. The same measure for VDSYGRPVSSGSRDE: less than -0.25; for DGTCLGAGRR: less than -0.25; for FVHCYLRWESEPLEFYLNGV: less than -0.25.

On to PRSDPLPSGQVRVCRYTTAE, for which the growth estimate is less than -0.25. As for SYPVRRMLKVRAQSFARPTD, the growth estimate was less than -0.25. Under RRPTGSFLSNSFRAVFGPES stands less than -0.25; under TVSINDWCGYVYDLDFCVLH, less than -0.25; under RIREYGTMWSRRVAKANAGV, less than -0.25. The same measure for CRVNTSVIWGRTRRLRRYGL: less than -0.25.
